Values of other authors in PMC3602246 (BMC Pharmacology & Toxicology, 2013).
pKi: −log10 of the molar value.

Tests used:
KOR = conditions: read-out: Ki, affinity binding to the KOR; cited from earlier work
DOR = conditions: read-out: Ki, affinity binding to the DOR; cited from earlier work
MOR = conditions: read-out: Ki, affinity binding to the MOR; cited from earlier work

COc1cccc(C2(O)CCCCC2CN(C)C)c1 (stereo not drawn) [Tramadol]
pKi (KOR): 4.37
pKi (DOR): 4.24
pKi (MOR): 5.62
